Measurements from US20250082624A1, “METHODS OF TREATING COGNITIVE IMPAIRMENT” (NeuroTherapia, Inc., priority 2023, published 2025).
Values joined by “and” are separate entries in the source; they are usually repeats but may differ in a detail not shown here. Equal values may be shown once. This continues a long series; more values of the same kind are listed elsewhere.

Experiment: Phase 1b MAD plasma pharmacokinetics, non-compartmental analysis
Type: in vivo, human
Source text: Methods: All study procedures were approved by the IRB, and informed consent was obtained. Three cohorts of volunteers 45-80 years of age with well-controlled comorbidities (NOAD) and one cohort of AD patients diagnosed with cognitive impairment consistent with prodromal AD per International Working Group criteria or mild AD per National Institute on Aging—Alzheimer's Association criteria (n=6 active, 2 placebo per cohort) were enrolled. Participants were admitted to the study site for the duration of the dosing and returned 7-12 days after the last dose for a safety visit. Participants received NTRX-07 (10, 30, or 90 mg) or a placebo in a double-blinded randomization orally once daily for seven days. Subjects were assessed for changes in vital signs, including maneuvers to induce lightheadedness, electrocardiograms, 24-hour electroencephalograms (EEG), and safety laboratory studies. The second cohort returned and received a single repeat dose after a standard high-fat meal. The AD cohort also underwent cognitive testing and had blood samples for biomarkers drawn. Subjects had PK sampling done after the first and final dose of the study drug. An independent safety review committee conducted a blinded safety review of adverse events and plasma levels between each cohort.
All subjects had PK sampling done after the first and final dose of the study drug.
(§1) Raw bioanalytical data were received from Nuvisan following analysis of plasma samples from each of four cohorts. PK parameters were calculated by noncompartmental analysis using standard equations. Specifically, area under the plasma concentration versus time curve (AUC) was calculated using the trapezoid rule. Maximal plasma concentration (Cmax) and time of maximal plasma concentration (Tmax) were taken directly from the data. Clearance divided by bioavailability (Cl/F) was calculated as the dose divided by the AUC. Apparent volume of distribution over bioavailability (Vd/F) was calculated as dose divided by Cmax.
With oral administration of the dose every 24 hours for 7 days, blood samples were taken over a 24-hour interval on Days 1 and 7 and before and after dosing on Day 3.
as §1, with “on Oct. 27, 2022. […]” for “following analysis of plasma samples from each of four cohorts. PK parameters were calculated by noncompartmental analysis using standard equations.”
as §1, with “on Nov. 24, 2022. […]” for “following analysis of plasma samples from each of four cohorts. PK parameters were calculated by noncompartmental analysis using standard equations.”
as §1, with “on Dec. 19, 2022. […]” for “following analysis of plasma samples from each of four cohorts. PK parameters were calculated by noncompartmental analysis using standard equations.”
Raw bioanalytical data were received from Nuvisan on Jun. 30, 2023. […] Specifically, area under the plasma concentration versus time curve (AUC) was calculated using the trapezoid rule. Maximal plasma concentration (Cmax) and time of maximal plasma concentration (Tmax) were taken directly from the data. […]

[1] = Table 25 (interim): Cohort B, 120 mg SDD (30 mg NTRX-07) QD oral, Day 7, individual subjects
[2] = Table 29 (interim): Cohort C, 360 mg SDD (90 mg NTRX-07) QD oral, Day 1, individual subjects
[3] = Table 30 (interim): Cohort C, 360 mg SDD (90 mg NTRX-07) QD oral, Day 7, individual subjects
[4] = Table 34 (interim): Cohort D (AD), 360 mg SDD (90 mg NTRX-07) QD oral, Day 1, individual subjects
[5] = Table 35 (interim): Cohort D (AD), 360 mg SDD (90 mg NTRX-07) QD oral, Day 7, individual subjects

In the case of `CC1(Cc2ccccc2)COc2cc(C(=O)N3CCCCC3)ccc21` (stereo not drawn) [NTRX-07, 3-benzyl-3-methyl-2,3-dihydrobenzofuran-6-carboxylic acid-piperidine amide], the Cl/F [1] is reported as 497 L/h and 1788 L/h and 599 L/h, the Cmax [1] is reported as 186 ng/mL and 42.4 ng/mL and 37.9 ng/mL and the Cl/F (Table 25 (interim): Cohort B, 120 mg SDD (30 mg NTRX-07) QD oral, Day 7, mean ± S.D.) is reported as 785 ± 635 L/h. The Cl/F [2] was 221.0 L/h and 420.3 L/h and 389.3 L/h and 548.0 L/h and 208.1 L/h and 184.7 L/h, the Cmax [2] was 449 ng/mL and 350 ng/mL and 337 ng/mL and 92.4 ng/mL and 713 ng/mL and 694 ng/mL and the Cl/F (Table 29 (interim): Cohort C, 360 mg SDD (90 mg NTRX-07) QD oral, Day 1, mean ± S.D.) was 329 ± 146 L/h. The Cl/F [3] was 459.9 L/h and 596.3 L/h and 1017.7 L/h and 697.8 L/h and 410.9 L/h and 266.9 L/h, the Cmax [3] was 167 ng/mL and 230 ng/mL and 155 ng/mL and 114 ng/mL and 105 ng/mL and 361 ng/mL and the Cl/F (Table 30 (interim): Cohort C, 360 mg SDD (90 mg NTRX-07) QD oral, Day 7, mean ± S.D.) was 575 ± 263 L/h. The Cl/F [4] was 358.6 L/h and 286.8 L/h and 132.0 L/h and 266.9 L/h and 227.8 L/h and 253.3 L/h, the Cmax [4] was 234 ng/mL and 491 ng/mL and 685 ng/mL and 435 ng/mL and 434 ng/mL and 587 ng/mL and the Cl/F (Table 34 (interim): Cohort D (AD), 360 mg SDD (90 mg NTRX-07) QD oral, Day 1, mean ± S.D.) was 254 ± 74 L/h. For the same compound, the Cl/F [5] was 357.3 L/h and 194.2 L/h and 217.1 L/h and 224.5 L/h and 271.1 L/h and 318.6 L/h, the Cmax [5] was 250 ng/mL and 262 ng/mL and 246 ng/mL and 176 ng/mL and 221 ng/mL and the Cl/F (Table 35 (interim): Cohort D (AD), 360 mg SDD (90 mg NTRX-07) QD oral, Day 7, mean ± S.D.) was 245 ± 50 L/h.
